We go through five substances from publication PMC9597352.

By UniProt entry, the sequences of proteins in these tests, tags left out.
UniProt Q96T51: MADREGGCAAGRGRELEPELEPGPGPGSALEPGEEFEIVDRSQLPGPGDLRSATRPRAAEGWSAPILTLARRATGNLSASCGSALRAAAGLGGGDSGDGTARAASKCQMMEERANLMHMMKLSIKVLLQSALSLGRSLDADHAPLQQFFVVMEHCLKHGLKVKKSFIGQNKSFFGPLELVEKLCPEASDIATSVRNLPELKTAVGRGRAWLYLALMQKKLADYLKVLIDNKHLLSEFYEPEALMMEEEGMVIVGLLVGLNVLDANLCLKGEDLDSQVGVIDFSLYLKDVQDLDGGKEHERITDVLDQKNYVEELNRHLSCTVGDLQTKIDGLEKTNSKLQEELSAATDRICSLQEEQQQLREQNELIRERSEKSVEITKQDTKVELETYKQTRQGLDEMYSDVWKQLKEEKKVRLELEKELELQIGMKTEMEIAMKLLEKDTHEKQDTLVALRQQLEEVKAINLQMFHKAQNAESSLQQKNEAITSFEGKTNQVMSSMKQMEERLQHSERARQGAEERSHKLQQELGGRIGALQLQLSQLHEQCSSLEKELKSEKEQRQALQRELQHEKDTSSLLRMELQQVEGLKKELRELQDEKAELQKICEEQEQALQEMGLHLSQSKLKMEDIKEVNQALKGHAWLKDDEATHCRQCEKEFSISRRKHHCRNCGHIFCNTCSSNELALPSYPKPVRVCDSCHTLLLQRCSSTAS
UniProt Q9Y6G9: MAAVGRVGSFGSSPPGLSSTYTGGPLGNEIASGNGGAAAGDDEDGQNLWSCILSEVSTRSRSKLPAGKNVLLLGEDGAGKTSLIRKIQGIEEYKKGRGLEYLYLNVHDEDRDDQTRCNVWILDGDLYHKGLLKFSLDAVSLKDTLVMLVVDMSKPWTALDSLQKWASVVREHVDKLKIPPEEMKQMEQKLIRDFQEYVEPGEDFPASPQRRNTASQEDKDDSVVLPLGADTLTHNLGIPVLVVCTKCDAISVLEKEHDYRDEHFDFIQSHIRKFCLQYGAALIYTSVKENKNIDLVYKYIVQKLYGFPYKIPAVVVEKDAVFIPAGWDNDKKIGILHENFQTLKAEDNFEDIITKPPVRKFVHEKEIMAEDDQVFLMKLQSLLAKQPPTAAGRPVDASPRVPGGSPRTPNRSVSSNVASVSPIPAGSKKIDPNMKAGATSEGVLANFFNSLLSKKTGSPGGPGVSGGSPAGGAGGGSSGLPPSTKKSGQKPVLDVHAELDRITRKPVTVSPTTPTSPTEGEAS
UniProt O43237: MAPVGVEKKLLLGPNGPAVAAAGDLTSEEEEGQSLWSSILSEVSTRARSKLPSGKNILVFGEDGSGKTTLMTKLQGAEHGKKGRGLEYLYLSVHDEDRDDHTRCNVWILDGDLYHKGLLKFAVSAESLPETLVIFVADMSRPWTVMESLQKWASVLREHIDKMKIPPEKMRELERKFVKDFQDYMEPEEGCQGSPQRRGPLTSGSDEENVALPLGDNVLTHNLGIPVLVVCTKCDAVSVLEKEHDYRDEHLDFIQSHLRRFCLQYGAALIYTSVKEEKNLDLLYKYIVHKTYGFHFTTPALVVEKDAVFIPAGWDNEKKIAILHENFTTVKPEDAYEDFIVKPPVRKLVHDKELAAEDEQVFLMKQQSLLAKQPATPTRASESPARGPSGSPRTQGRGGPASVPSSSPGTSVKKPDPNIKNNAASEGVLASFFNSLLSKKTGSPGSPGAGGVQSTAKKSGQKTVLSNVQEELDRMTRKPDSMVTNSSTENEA
UniProt Q13561: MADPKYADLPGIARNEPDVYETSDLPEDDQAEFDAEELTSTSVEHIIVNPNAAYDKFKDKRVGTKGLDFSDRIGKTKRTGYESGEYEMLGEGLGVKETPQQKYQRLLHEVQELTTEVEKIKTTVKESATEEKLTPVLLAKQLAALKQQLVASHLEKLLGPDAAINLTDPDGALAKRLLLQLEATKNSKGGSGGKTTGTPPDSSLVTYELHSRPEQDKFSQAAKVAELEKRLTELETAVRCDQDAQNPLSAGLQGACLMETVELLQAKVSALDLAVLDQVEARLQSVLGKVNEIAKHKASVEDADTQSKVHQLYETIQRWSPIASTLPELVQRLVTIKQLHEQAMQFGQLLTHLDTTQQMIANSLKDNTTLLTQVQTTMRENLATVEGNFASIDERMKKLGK

These are yes or no findings as the source states them, for the method shown. Binding seen in cells or lysates may run through a third protein. A yes stands for co-enrichment or nearness to the bait. Other partners may have been found.

The assay concerns the target TAP-tagged RUFY1 (longer isoform) (human) (UniProt Q96T51). The experiment in a line: affinity purification with mass spectrometry; tandem affinity purification (streptavidin, then calmodulin resin) of TAP-RUFY1 from about 50 million stably expressing HEK293T cells; hits filtered with CRAPOME.

As to “Dynein heavy chain (DHC) (from UniProt Q14204 1-4646)”, the binding result was “binds”.
For the substance “dynein light intermediate chain 1 (LIC1), endogenous (from UniProt Q9Y6G9 1-523)”, the binding result is given as “binds”.
As for “dynein light intermediate chain 2 (LIC2) (from UniProt O43237 1-492)”, the entry is “binds”; as for “p50 (dynamitin) (from UniProt Q13561 1-401)”, “binds”; as for “p150^glued (dynactin) (from UniProt Q14203-1 1-1278)”, “binds”.
